Molecules are shown by their SMILES. Some of the results follow. Shown are side measurements of this screen, not its main read-out; they come without a call. The list favours compounds with an active or inconclusive main result. Potencies come from curve fits of mixed quality, noted in brackets.

The nature of this test: qHTS Assay for Modulators of Lamin A Splicing. The settings on record: HeLa LMNA splicing GFP/RFP minigene ratio, 48 h. An outline of the steps:
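S3 HeLa stable clones carrying a lamin A-EGFP splicing minigene plus DsRed2 were seeded at 600 cells/well in Opti-MEM with 2% FBS, pin-dosed and incubated 48 h at 37°C. Acumen cytometry (488 nm) gave the GFP/RFP total-intensity ratio.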

Setting [1] is: measured here: RFP viability control channel.
The mark [2] stands for this setting: measured here: GFP splicing reporter channel.

As to `CCOc1ccc(S(=O)(=O)Nc2ccc(O)c(Sc3ncn[nH]3)c2)cc1`, under setting [1], the AC50 was 14.1 µM [rising, partial curve].

Consider `CNC(=O)c1nnsc1S(=O)(=O)c1ccc(Cl)cc1`, for which, under setting [1], the AC50 was 1.26 µM [falling, single point].

For the compound `CN(C)S(=O)(=O)c1cccc(NC(=O)c2cc3ccccc3o2)c1`, under setting [1], the AC50 was 35.5 µM [rising, single point].

Turning to `O=C(CC1SC(=Nc2ccccc2)N(Cc2ccccn2)C1=O)Nc1ccc(Br)cc1` (stereo not given), the AC50 under setting [2] was 20 µM [falling, partial curve, poor fit].

Consider `CCC(C(=O)c1ccc2ncccc2c1)c1ccccc1` (stereo not given), for which the AC50 under setting [2] was 11.2 µM [rising, partial curve] and the AC50 under setting [1] is 12.6 µM [rising, partial curve].

For the compound `COc1ccc(CN=C(NS(=O)(=O)c2cccs2)SC)cc1`, the AC50 under setting [1] was 22.4 µM [rising, single point].

For `Nc1nc(CN2CCN(c3ccccc3)CC2)nc(N2CCCc3ccccc32)n1`, under setting [1], the AC50 was 6.31 µM [rising, full curve, poor fit].

For `Cc1ccccc1OCC(=O)Nc1cc(-c2cccc(Br)c2)nn1-c1ccccc1`, the AC50 under setting [2] was 0.0251 µM [rising, full curve, poor fit] and the AC50 under setting [1] is 7.94 µM [rising, partial curve, poor fit].

As for `O=C(NCc1nc2cccnc2n1Cc1ccc(F)cc1)c1ccccc1C(F)(F)F`, the AC50 under setting [1] is 0.0355 µM [falling, full curve].

`CCCCNC(=O)CCC(=O)Nc1ccc2nc(N3CCN(C)CC3)cc(C)c2c1`: under setting [1], the AC50 was 10 µM [falling, partial curve].

`O=C(c1cccc(Cl)c1)N1CCN(CCc2ccccn2)CC1`: under setting [2], the AC50 is 0.794 µM [falling, partial curve, poor fit].

In the case of `CCCCNC(=O)c1c(C)oc2ncn(CC(C)C)c(=O)c12`, the AC50 was 0.0224 µM [falling, full curve, poor fit] under setting [2] and 0.0447 µM [falling, full curve] under setting [1].

Take `O=C(Nc1cccc(-c2cn3c(n2)SCC3)c1)c1ccc2ccccc2n1`: the AC50 runs as follows: under setting [2], 12.6 µM [falling, partial curve]; under setting [1], 15.8 µM [falling, partial curve].

`CCc1ccc2c(CN3CCN(S(=O)(=O)c4cccs4)CC3)cc(=O)oc2c1`: the AC50 under setting [1] is 14.1 µM [rising, single point].

For the compound `Brc1ccc(-c2csc(-c3ccncc3)n2)cc1`, the AC50 under setting [1] is 0.0562 µM [rising, full curve].

With `O=C(CSc1nnc(-c2cc3ccccc3cc2O)n1Cc1ccco1)c1ccc(F)cc1`, the AC50 under setting [1] was 35.5 µM [rising, single point].

Take `Cc1nnc(SCC2=C(C(=O)O)N3C(=O)C(NC(=O)Cn4nc(C(F)F)cc4C)C3SC2)s1` (stereo not given): the AC50 under setting [1] was 0.501 µM [rising, partial curve, poor fit].

As to `COc1ccc(OC)c(NC(=O)CN(C)S(=O)(=O)c2ccc3[nH]c4c(c3c2)CCCC4)c1`, under setting [2], the AC50 was 35.5 µM [falling, single point].

Consider `CCN(CC)c1ccc2cc(NC(=O)CCC(=O)O)c(=O)oc2c1`, for which, under setting [1], the AC50 is 11.2 µM [falling, partial curve, poor fit].

In the case of `CC1(C)CC(C(CCN(Cc2ccccc2)C(=O)c2ccco2)c2ccc(F)cc2)CCO1` (stereo not given), the AC50 was 15.8 µM [falling, single point] under setting [2] and 14.1 µM [falling, single point] under setting [1].

As for `O=c1c2ccccc2c(C=NCCCN2CCOCC2)c(O)n1Cc1ccc2c(c1)OCO2`, the AC50 under setting [1] is 0.224 µM [rising, partial curve, poor fit].

Turning to `Cc1noc(C)c1COc1ccc2ccc(=O)oc2c1`, the AC50 is 20 µM [rising, single point] under setting [2] and 20 µM [rising, partial curve, poor fit] under setting [1].

`CCOc1ccc(NC(=O)c2c(NCc3ccc(C)o3)sc3c2CCC(C)C3)cc1` (stereo not given): the AC50 under setting [1] was 35.5 µM [rising, single point].

Take `O=C(COC(=O)C1(c2ccc(Cl)cc2)CCCC1)Nc1ncc(C(F)(F)F)cc1Cl`: the AC50 reads like this: under setting [2], 11.2 µM [rising, partial curve]; under setting [1], 11.2 µM [rising, partial curve].

Consider `COc1ccc(C(=O)NCCc2sc(-c3ccc(Cl)cc3)nc2C)c(OC)c1`, for which the AC50 under setting [1] was 0.158 µM [rising, full curve, poor fit].

With `COc1ccc(C)cc1NC(=O)NCc1ccc2c(c1)CCN2C(=O)c1ccccc1`, the AC50 under setting [2] is 0.794 µM [rising, full curve, poor fit].

Turning to `CC(C)CN(Cc1c(O)ccc2ccccc12)CC(C)C`, the AC50 under setting [2] was 0.0631 µM [falling, full curve, poor fit] and the AC50 under setting [1] was 17.8 µM [falling, partial curve, poor fit].

In the case of `CC(=O)N(Cc1ccc(F)cc1)C1=C(NCCc2ccccc2)C(=O)c2ccccc2C1=O`, the AC50 is, setting by setting: under setting [2], 22.4 µM [falling, single point]; under setting [1], 5.62 µM [rising, single point].

For the compound `CCCN1C(=O)C(Cc2nc3ccccc3c(=O)n2-c2ccccc2)c2cc(C)ccc21` (stereo not given), the AC50 was 15.8 µM [rising, single point] under setting [2] and 22.4 µM [rising, single point] under setting [1].

Regarding `COC(=O)c1ccccc1CCC(C)=O`, the AC50 under setting [1] was 35.5 µM [falling, partial curve, poor fit].

Take `COc1cc(/C=C/C(=O)NC(C)CCc2ccccc2)cc(OC)c1OC` (stereo not given): the AC50 under setting [1] was 14.1 µM [rising, single point].

On to `CCOC(=O)N1c2ccccc2C=CC1OCC` (stereo not given), for which the AC50 under setting [1] was 1.41 µM [rising, single point].

For the compound `O=C(NCCOCc1ccc(Cl)cc1)c1ncn[nH]1`, the AC50 by setting is: under setting [2], 0.501 µM [rising, full curve, poor fit]; under setting [1], 0.0224 µM [rising, full curve].

With `COc1ccc(CNc2ncncc2-c2ccccc2C(F)(F)F)c(OC)c1`, the concentration at half-maximal activity (AC50) under setting [2] was 0.282 µM [falling, full curve, poor fit].

Take `COc1cc(/C=N/n2nnnc2N)ccc1OCc1c(C)no[n+]1[O-]`: the concentration at half-maximal activity (AC50) was 15.8 µM [rising, partial curve] under setting [2] and 0.178 µM [rising, full curve, poor fit] under setting [1].

For `COc1cccc(Cn2c(=O)c(CCc3ccccc3)nc3cnc(N4CCN(C)CC4)nc32)c1`, the AC50 is 17.8 µM [falling, partial curve] under setting [2] and 22.4 µM [falling, single point] under setting [1].

For the compound `O=C(/C=C/c1ccccc1)Nc1cccc(S(=O)(=O)Nc2ccccc2F)c1`, the AC50 is, setting by setting: under setting [2], 28.2 µM [rising, single point]; under setting [1], 31.6 µM [rising, single point].

As for `N#Cc1nc(Cc2ccccc2)oc1NCc1ccccc1Cl`, the AC50 under setting [1] was 8.91 µM [rising, partial curve].

`COc1cc(OC)c(OC)cc1/C=C1\CCC(C2CCCC2)C1=O` (stereo not given): under setting [1], the AC50 is 35.5 µM [rising, single point].

For the compound `Cc1cccc(C(=O)NCCc2n[nH]c(=S)n2C)c1`, under setting [2], the AC50 was 0.00447 µM [falling, full curve].

Turning to `O=C(O)/C=C/C(=O)Nc1ccc(OC(F)(F)Cl)cc1`, under setting [2], the AC50 is 0.00355 µM [rising, full curve].

Regarding `NCC[C@H](O)C(=O)N[C@@H]1C[C@H](N)[C@@H](O[C@H]2O[C@H](CN)[C@@H](O)[C@H](O)[C@H]2O)[C@H](O)[C@H]1O[C@H]1O[C@H](CO)[C@@H](O)[C@H](N)[C@H]1O`, the AC50 is 0.002 µM [falling, full curve, poor fit] under setting [2] and 0.158 µM [falling, full curve, poor fit] under setting [1].

Take `CCNS(=O)(=O)c1cccc(C(=O)c2c(C)cc3ccccn23)c1`: the AC50 by setting is: under setting [2], 31.6 µM [rising, single point]; under setting [1], 35.5 µM [rising, single point].

For the compound `Cn1c(=O)[nH]c(=O)c2c1nc(N1CCCCC1)n2CCCSc1nc2ccccc2s1`, under setting [1], the AC50 is 31.6 µM [rising, single point].

Consider `N#Cc1cccc(-c2ccc3ncnc(NCCN4CCOCC4)c3c2)c1`, for which the AC50 under setting [2] was 11.2 µM [falling, partial curve].

`CC(C)CC(COCc1cccc(Cl)c1)N1CCN(C(=O)c2ccc(C(F)(F)F)cc2)CCC1=O` (stereo not given): the AC50 reads like this: under setting [2], 14.1 µM [rising, single point]; under setting [1], 31.6 µM [rising, single point].

Take `Clc1ccc(C2=NCCN2)cc1`: the AC50 was 0.0224 µM [falling, full curve, poor fit] under setting [2] and 0.0316 µM [falling, full curve, poor fit] under setting [1].

Take `CCN(CC)C(=O)Cn1c(=O)nc(-c2ccccc2F)c2cc(Cl)ccc21`: the half-maximal activity concentration (AC50) under setting [1] is 5.62 µM [rising, single point].

In the case of `Cc1ccc(Nc2c(N)c(=O)oc3ccccc23)cc1`, the AC50 under setting [1] was 14.1 µM [rising, partial curve].

With `Cc1cc(F)ccc1S(=O)(=O)Nc1ccc2c(c1)CCCN2C(=O)c1cccs1`, under setting [2], the AC50 was 12.6 µM [falling, partial curve, poor fit].

For `COc1cccc(C2CC(c3cccs3)=NN2C(=O)CSc2nc3ccccc3s2)c1OC` (stereo not given), the half-maximal activity concentration (AC50) under setting [1] is 11.2 µM [rising, single point].

On to `O=C(CSc1nnc(-c2ccccc2)n1Cc1ccccc1)N1CCCC1`, for which, under setting [1], the AC50 was 0.794 µM [falling, partial curve, poor fit].

As for `O=C(COc1ccc(F)cc1)OCc1cc(=O)n2nc(C3CCCCC3)sc2n1`, the AC50 under setting [2] is 0.01 µM [falling, full curve, poor fit] and the half-maximal activity concentration (AC50) under setting [1] was 0.01 µM [falling, full curve, poor fit].

Regarding `Fc1ccc(NC(=S)NCCc2ccccn2)cc1`, under setting [2], the AC50 was 22.4 µM [falling, partial curve, poor fit].

Regarding `O=C(Nc1ccccc1O)c1cc(S(=O)(=O)N2CCOCC2)c(Cl)cc1Cl`, the AC50 is 1.78 µM [rising, full curve, poor fit] under setting [2] and 11.2 µM [rising, partial curve] under setting [1].

(Values after PubChem BioAssay AID1487 (National Center for Advancing Translational Sciences (NCATS), 2009).)
